These are yes or no findings as the source states them, for the method shown. Binding seen in cells or lysates may run through a third protein. A result given as binding can be weak or reduced; the word gives no strength. Sequences can lack the tags named with a protein.
Target: ΔMyr-Jacob-L175A-V176A-GFP (UniProt Q9EPI6)
Experiment: co-IP

Sequences of proteins named here, by UniProt entry; tags and fusion partners are left off. A change or cut given only in a name is not applied to a line headed by its entry.
UniProt Q9EPI6: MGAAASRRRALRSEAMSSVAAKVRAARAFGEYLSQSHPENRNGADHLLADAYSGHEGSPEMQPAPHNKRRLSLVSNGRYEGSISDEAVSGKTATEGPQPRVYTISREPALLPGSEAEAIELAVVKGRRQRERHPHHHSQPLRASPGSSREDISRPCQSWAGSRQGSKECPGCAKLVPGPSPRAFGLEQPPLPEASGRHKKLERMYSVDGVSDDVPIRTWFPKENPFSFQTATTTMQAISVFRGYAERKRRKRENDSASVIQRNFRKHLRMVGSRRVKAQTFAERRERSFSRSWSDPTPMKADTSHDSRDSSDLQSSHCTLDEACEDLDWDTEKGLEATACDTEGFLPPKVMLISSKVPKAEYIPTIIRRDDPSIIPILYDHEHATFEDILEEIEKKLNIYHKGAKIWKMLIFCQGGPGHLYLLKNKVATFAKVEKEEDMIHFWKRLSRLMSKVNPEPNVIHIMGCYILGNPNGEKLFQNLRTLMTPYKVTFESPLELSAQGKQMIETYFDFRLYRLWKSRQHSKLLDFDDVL

B1: GST-LMO4 (natural protein, UniProt P61968 1-165, looked up)
chain: MVNPGSSSQPPPVTAGSLSWKRCAGCGGKIADRFLLYAMDSYWHSRCLKCSCCQAQLGDIGTSCYTKSGMILCRNDYIRLFGNSGACSACGQSIPASELVMRAQGNVYHLKCFTCSTCRNRLVPGDRFHYINGSLFCEHDRPTALINGHLNSLQSNPLLPDQKVC
- binding: binds weakly
